No constants are given. Whether binding was seen depends on the method and setting. Binding seen in cells or lysates may run through a third protein. Some results given as binding are weak or reduced against the parent protein; the word gives no strength. Tags and fused reporters may be left off the sequences shown.

This is an account of results in paper PMC10492306.

The target in test [1] is T1, Flag-TGFβRI (TGF-β receptor I), P36897.
T1 chain: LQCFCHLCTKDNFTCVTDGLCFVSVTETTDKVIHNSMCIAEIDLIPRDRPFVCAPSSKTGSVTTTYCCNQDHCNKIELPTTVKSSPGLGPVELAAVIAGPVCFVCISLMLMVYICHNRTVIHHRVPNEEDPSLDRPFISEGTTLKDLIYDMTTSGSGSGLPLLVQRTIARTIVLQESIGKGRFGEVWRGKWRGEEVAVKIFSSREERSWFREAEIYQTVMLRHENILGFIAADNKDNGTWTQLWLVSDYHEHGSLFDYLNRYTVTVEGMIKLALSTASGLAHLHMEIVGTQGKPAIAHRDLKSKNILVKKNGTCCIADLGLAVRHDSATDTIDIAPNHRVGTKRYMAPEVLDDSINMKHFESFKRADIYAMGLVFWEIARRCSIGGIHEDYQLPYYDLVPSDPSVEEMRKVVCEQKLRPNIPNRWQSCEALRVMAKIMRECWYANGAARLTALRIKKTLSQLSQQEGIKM
Kind of test: co-IP; Flag-TGFβRI immunoprecipitates and HA-SMAD3 immunoprecipitates from lysates of PANC-1 and BxPC-3 cells, western blot; 5 ng/ml TGF-β, 15 min; sh-ctrl or circEIF3I knockdown, also with ectopic circEIF3I-WT, circ-mut-SMAD3 or circ-mut-AP2A1. As to conditions: remark: other sources report otherwise.

The next test deals with HA-SMAD3, P84022. Described as above. As to conditions: remark: other sources report otherwise.

B1: HA-SMAD3, P84022 1-425 (protein)
chain: MSSILPFTPPIVKRLLGWKKGEQNGQEEKWCEKAVKSLVKKLKKTGQLDELEKAITTQNVNTKCITIPRSLDGRLQVSHRKGLPHVIYCRLWRWPDLHSHHELRAMELCEFAFNMKKDEVCVNPYHYQRVETPVLPPVLVPRHTEIPAEFPPLDDYSHSIPENTNFPAGIEPQSNIPETPPPGYLSEDGETSDHQMNHSMDAGSPNLSPNPMSPAHNNLDLQPVTYCEPAFWCSISYYELNQRVGETFHASQPSMTVDGFTDPSNSERFCLGLLSNVNRNAAVELTRRHIGRGVRLYYIGGEVFAECLSDSAIFVQSPNCNQRYGWHPATVCKIPPGCNLKIFNNQEFAALLAQSVNQGFEAVYQLTRMCTIRMSFVKGWGAEYRRQTVTSTPCWIELHLNGPLQWLDKVLTQMGSPSIRCSSVS
Turning to B1, the binding entry in test [1] is on record as “binds”.

B2: Flag-TGFβRI (TGF-β receptor I), P36897 34-503 (receptor)
chain: LQCFCHLCTKDNFTCVTDGLCFVSVTETTDKVIHNSMCIAEIDLIPRDRPFVCAPSSKTGSVTTTYCCNQDHCNKIELPTTVKSSPGLGPVELAAVIAGPVCFVCISLMLMVYICHNRTVIHHRVPNEEDPSLDRPFISEGTTLKDLIYDMTTSGSGSGLPLLVQRTIARTIVLQESIGKGRFGEVWRGKWRGEEVAVKIFSSREERSWFREAEIYQTVMLRHENILGFIAADNKDNGTWTQLWLVSDYHEHGSLFDYLNRYTVTVEGMIKLALSTASGLAHLHMEIVGTQGKPAIAHRDLKSKNILVKKNGTCCIADLGLAVRHDSATDTIDIAPNHRVGTKRYMAPEVLDDSINMKHFESFKRADIYAMGLVFWEIARRCSIGGIHEDYQLPYYDLVPSDPSVEEMRKVVCEQKLRPNIPNRWQSCEALRVMAKIMRECWYANGAARLTALRIKKTLSQLSQQEGIKM
With B2, in the test with HA-SMAD3, P84022, the binding entry is on record as “binds”.
